Common to all, as to assay: co-IP; HEK293T cells co-transfected with both partners; lysis in 0.5% Triton X-100, 20 mM Tris-HCl pH 7.5, 150 mM NaCl, 10% glycerol, 1 mM EDTA; anti-Flag agarose or anti-HA magnetic beads 4 h at 4°C; washes with 300 mM NaCl; immunoblotting
On the technique in general: Immunoblotting shows a protein as a band on a membrane.

One assay addresses T1, TAB2 (UniProt Q9NYJ8).
T1 sequence: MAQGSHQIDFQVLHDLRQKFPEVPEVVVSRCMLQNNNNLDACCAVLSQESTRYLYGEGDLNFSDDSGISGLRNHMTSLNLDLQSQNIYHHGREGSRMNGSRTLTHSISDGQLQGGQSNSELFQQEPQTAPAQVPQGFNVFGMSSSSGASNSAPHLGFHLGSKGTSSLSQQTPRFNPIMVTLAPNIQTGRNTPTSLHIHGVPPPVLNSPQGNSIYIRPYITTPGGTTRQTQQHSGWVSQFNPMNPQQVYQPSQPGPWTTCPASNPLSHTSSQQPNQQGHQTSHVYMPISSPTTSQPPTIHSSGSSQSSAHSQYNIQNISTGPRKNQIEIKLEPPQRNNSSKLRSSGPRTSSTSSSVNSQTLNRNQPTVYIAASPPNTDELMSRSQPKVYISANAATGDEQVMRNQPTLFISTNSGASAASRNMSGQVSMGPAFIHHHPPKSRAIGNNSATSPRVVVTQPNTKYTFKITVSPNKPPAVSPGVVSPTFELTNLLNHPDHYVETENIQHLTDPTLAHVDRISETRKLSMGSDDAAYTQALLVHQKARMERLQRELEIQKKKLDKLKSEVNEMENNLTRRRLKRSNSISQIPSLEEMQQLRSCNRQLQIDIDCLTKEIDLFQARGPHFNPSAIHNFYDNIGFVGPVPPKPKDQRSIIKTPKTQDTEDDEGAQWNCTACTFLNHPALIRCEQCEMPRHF

The target of assay [1] is T2, TRAF2 (full length, overexpressed) (UniProt Q12933).
T2 sequence: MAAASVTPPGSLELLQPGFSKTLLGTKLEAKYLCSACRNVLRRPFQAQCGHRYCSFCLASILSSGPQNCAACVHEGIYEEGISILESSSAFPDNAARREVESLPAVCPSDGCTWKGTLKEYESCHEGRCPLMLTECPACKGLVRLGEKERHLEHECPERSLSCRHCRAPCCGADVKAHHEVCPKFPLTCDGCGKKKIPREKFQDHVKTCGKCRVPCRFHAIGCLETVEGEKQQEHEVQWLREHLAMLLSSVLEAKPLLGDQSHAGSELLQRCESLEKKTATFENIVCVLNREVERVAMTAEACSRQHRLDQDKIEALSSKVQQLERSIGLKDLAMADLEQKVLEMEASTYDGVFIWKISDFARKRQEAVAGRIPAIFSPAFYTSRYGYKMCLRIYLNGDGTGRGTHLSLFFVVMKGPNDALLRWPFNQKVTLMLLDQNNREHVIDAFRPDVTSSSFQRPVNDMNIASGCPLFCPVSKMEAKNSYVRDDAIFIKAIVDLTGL

For assay [2], the target named is T3, TRAF2-C (C-terminal TRAF domain; residues 272–501) (UniProt Q12933).
T3 sequence: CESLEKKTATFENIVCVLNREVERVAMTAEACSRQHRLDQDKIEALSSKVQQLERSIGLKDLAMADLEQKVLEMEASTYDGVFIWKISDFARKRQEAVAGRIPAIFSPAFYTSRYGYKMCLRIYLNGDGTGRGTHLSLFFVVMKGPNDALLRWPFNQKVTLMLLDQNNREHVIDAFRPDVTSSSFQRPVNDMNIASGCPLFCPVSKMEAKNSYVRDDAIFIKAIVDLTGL

Assay [3] deals with T4, TRAF2-N (N-terminal zinc-binding domain; residues 1–271) (UniProt Q12933).
T4 sequence: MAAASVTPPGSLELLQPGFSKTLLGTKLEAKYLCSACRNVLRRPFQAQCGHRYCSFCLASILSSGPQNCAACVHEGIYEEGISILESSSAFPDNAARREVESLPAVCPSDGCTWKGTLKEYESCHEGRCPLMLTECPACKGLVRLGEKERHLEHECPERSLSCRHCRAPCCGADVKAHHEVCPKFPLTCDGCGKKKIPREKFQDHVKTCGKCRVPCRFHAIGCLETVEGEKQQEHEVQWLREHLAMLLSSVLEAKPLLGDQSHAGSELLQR

The target in assay [4] is T5, TRAF6-C (C-terminal TRAF domain; residues 262–522) (UniProt Q9Y4K3).
T5 sequence: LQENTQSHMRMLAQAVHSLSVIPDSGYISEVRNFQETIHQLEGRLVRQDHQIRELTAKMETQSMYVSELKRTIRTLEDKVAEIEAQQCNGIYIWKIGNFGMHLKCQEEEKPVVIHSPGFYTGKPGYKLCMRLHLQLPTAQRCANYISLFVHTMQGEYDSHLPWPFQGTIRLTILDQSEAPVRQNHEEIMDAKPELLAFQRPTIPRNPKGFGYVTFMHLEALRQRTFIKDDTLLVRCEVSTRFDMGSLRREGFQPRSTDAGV

No constants are given. Whether binding was seen depends on the method and setting. Binding seen in cells or lysates may run through a third protein. Some results given as binding are weak or reduced against the parent protein; the word gives no strength.

B1: KIZ (full length, co-transfected in HEK293T) (protein, UniProt Q2M2Z5 1-673)
chain: MSRTLASAVPLSSPDYYERLGQLQHGLRDSEKKRLDLEKKLYEYNQSDTCRVKLKYVKLKNYLKEICESEKKAHTRNQEYLKRFERVQAHVVHFTTNTEKLQKLKLEYETQIKKMLCSKDSLGLKEELTDEDREKVAVHEGINSGTAMSRGLYQPATIFMGRQMSAILSMRDFSTEHKSPQPTKNFSIPDPHSHRQTAQSSNVTDSCVVQTSNDTQCLNKSDNIDGKASLQIGEKMPVTASVLSEEEQTHCLEIGSNTRHGKSNLSEGKKSAELNSPLRERLSPENRTTDLKCDSSSGSEGEILTREHIEVEEKRASPPVSPIPVSEYCESENKWSQEKHSPWEGVSDHLAHREPKSQKPFRKMQEEEEESWSTSSDLTISISEDDLILESPEPQPNPGGKMEGEDGIEALKLIHAEQERVALSTEKNCILQTLSSPDSEKESSTNAPTREPGQTPDSDVPRAQVGQHVATLKEHDNSVKEEATALLRKALTEECGRRSAIHSSESSCSLPSILNDNSGIKEAKPAVWLNSVPTREQEVSSGCGDKSKKENVAADIPITETEAYQLLKKATLQDNTNQTENRFQKTDASVSHLSGLNIGSGAFETKTANKIASEASFSSSEGSPLSRHENKKKPVINLKSNALWDESDDSNSEIEAALRPRNHNTDDSDDFYD
For the molecule B1, the binding entry in the assay with TAB2 was “no binding”; in assay [1], “binds”; in assay [2], “binds”; in assay [3], “binds”; in assay [4], “binds”.
